This note sets out measurements from publication PMC8490984.

Amino acid sequences for entries named in this document (tags omitted).
UniProt P32495: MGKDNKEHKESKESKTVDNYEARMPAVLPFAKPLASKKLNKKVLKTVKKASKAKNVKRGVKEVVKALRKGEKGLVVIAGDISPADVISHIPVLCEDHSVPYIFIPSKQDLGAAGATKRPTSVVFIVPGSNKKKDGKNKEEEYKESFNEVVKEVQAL
UniProt P28007: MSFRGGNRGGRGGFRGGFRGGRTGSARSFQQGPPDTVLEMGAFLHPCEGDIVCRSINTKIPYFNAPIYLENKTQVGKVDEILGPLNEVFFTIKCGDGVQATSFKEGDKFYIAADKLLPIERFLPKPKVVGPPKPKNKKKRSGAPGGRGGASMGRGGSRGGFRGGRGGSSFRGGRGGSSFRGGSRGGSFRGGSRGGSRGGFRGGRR
UniProt P33322: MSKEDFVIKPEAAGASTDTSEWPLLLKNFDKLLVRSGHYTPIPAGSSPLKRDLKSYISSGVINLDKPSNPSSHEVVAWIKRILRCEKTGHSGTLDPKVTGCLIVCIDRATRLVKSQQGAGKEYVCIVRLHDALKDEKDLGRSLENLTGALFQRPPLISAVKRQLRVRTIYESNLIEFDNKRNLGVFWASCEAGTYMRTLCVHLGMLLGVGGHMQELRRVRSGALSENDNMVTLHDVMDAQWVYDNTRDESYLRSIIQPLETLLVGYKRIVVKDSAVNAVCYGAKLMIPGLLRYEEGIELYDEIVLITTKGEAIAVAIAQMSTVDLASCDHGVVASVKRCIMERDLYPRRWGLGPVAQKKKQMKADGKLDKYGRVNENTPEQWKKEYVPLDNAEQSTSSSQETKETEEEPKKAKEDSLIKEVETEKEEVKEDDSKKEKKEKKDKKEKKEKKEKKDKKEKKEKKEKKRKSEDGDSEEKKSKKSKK

No constants are given. Whether binding was seen depends on the method and setting. Binding seen in cells or lysates may run through a third protein. Here binding means that the protein was enriched with, or labelled near, the bait; the list need not be complete.

To fix the notation:
B1: Mpp10 (protein, UniProt P47083 1-593)
chain: MSELFGVLKSNAGRIILKDPSATSKDVKAYIDSVINTCKNGSITKKAELDEITVDGLDANQVWWQVKLVLDSIDGDLIQGIQELKDVVTPSHNLSDGSTLNSSSGEESELEEAESVFKEKQMLSADVSEIEEQSNDSLSENDEEPSMDDEKTSAEAAREEFAEEKRISSGQDERHSSPDPYGINDKFFDLEKFNRDTLAAEDSNEASEGSEDEDIDYFQDMPSDDEEEEAIYYEDFFDKPTKEPVKKHSDVKDPKEDEELDEEEHDSAMDKVKLDLFADEEDEPNAEGVGEASDKNLSSFEKQQIEIRKQIEQLENEAVAEKKWSLKGEVKAKDRPEDALLTEELEFDRTAKPVPVITSEVTESLEDMIRRRIQDSNFDDLQRRTLLDITRKSQRPQFELSDVKSSKSLAEIYEDDYTRAEDESALSEELQKAHSEISELYANLVYKLDVLSSVHFVPKPASTSLEIRVETPTISMEDAQPLYMSNASSLAPQEIYNVGKAEKDGEIRLKNGVAMSKEELTREDKNRLRRALKRKRSKANLPNVNKRSKRNDVVDTLSKAKNITVINQKGEKKDVSGKTKKSRSGPDSTNIKL
B2: Imp4 (protein, UniProt P53941 1-290)
chain: MLRRQARERREYLYRKAQELQDSQLQQKRQIIKQALAQGKPLPKELAEDESLQKDFRYDQSLKESEEADDLQVDDEYAATSGIMDPRIIVTTSRDPSTRLSQFAKEIKLLFPNAVRLNRGNYVMPNLVDACKKSGTTDLVVLHEHRGVPTSLTISHFPHGPTAQFSLHNVVMRHDIINAGNQSEVNPHLIFDNFTTALGKRVVCILKHLFNAGPKKDSERVITFANRGDFISVRQHVYVRTREGVEIAEVGPRFEMRLFELRLGTLENKDADVEWQLRRFIRTANKKDYL

For this test, the target named is myc-tagged Nhp2 (S. cerevisiae) (UniProt P32495). In words: affinity purification with mass spectrometry; IP of Nhp2-myc with anti-myc antibody on Protein G Dynabeads from cleared yeast lysate (1 mg/ml), overnight at 4°C, washes in TBS; label-free quantification against the untagged parental strain.
For Gar1 (from UniProt P28007 1-205), the binding result is given as “binds”. For Cbf5 (from UniProt P33322 1-483), the binding entry is listed as “binds”.

Turning to B1, the binding entry is “binds”. With B2, the binding result is reported as “binds”.
